Results deposited as PubChem BioAssay AID1259424 (University of Nebraska Medical Center, 2018)
Aim: 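Find knockdowns that reproduce the expression shifts seen after KSR1 loss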 (primary screen). System: human HCT116 colon cancer cells. Reagents: siRNA pool against human genes, 50 nM. Measurement: 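Log2 levels of six mRNAs (branched-DNA multiplex), adjusted by two reference genes and the non-targeting median, then scored against the average KSR1 knockdown pattern as Pearson r and euclidean distance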. Direction: mean correlation with KSR1 profile and KSR1 correlation: higher = expression change more like KSR1 knockdown; mean distance from KSR1 profile: higher = expression change less like KSR1 knockdown.
The whole screen tested about 14,000 reagents; shown is an unselected part. 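Higher correlation or smaller distance means closer resemblance to KSR1 loss; control wells, including KSR1 knockdowns, recur on many plates.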 A reagent listed more than once was tested more than once; the source does not tell the runs apart. No sequences are given here. Not stated in the record: the time to read-out.

no.	gene	mean correlation with KSR1 profile	mean distance from KSR1 profile	KSR1 correlation, replicate 1	KSR1 correlation, replicate 2	KSR1 correlation, replicate 3
1	BTBD10 (GeneID 84280)	0.352	2.45	0.176	0.446	0.363
2	FIBP (GeneID 9158)	0.86	0.899	0.682	0.932	0.662
3	CRLS1 (GeneID 54675)	-0.279	1.55	-0.401	0.00345	0.359
4	AHSP (GeneID 51327)	-0.134	1.86	0.0698	-0.19	-0.126
5	AHSP (GeneID 51327)	-0.159	2.18	0.0102	-0.151	-0.223
6	ELMOD1 (GeneID 55531)	-0.0439	1.24	0.267	-0.58	-0.222
7	LTB4R2 (GeneID 56413)	0.381	2.73	0.404	0.388	0.558
8	PCDHGA6 (GeneID 56109)	-0.166	2.1	-0.228	-0.135	-0.127
9	DUSP4 (GeneID 1846)	0.00519	2.35	0.17	0.0768	-0.385
10	AMPD3 (GeneID 272)	0.266	1.65	0.18	0.397	0.637
11	DDB1 (GeneID 1642)	-0.304	3.08	-0.222	-0.423	-0.321
12	MLXIPL (GeneID 51085)	0.267	2.39	0.448	-0.134	0.387
13	MRNIP (GeneID 51149)	-0.267	3.7	-0.199	-0.25	-0.201
14	FGB (GeneID 2244)	-0.409	2.05	-0.581	-0.661	-0.39
15	CAPN9 (GeneID 10753)	0.259	0.919	0.217	0.294	0.0745
16	C1GALT1C1 (GeneID 29071)	0.214	1.5	-0.0696	-0.175	-0.22
17	TLR9 (GeneID 54106)	-0.312	1.97	-0.491	-0.201	-0.123
18	EIF3H (GeneID 8667)	0.269	1.26	0.405	0.285	0.363
19	TMEM144 (GeneID 55314)	-0.635	1.91	-0.362	-0.728	-0.714
20	PTGES2 (GeneID 80142)	0.564	1.26	0.575	0.366	0.62
21	MRPS14 (GeneID 63931)	-0.407	7.06	0.175	-0.249	0.175
22	CCDC40 (GeneID 55036)	-0.295	1.46	-0.163	-0.268	-0.323
23	USP5 (GeneID 8078)	-0.384	1.72	-0.249	-0.463	-0.56
24	PDE6B (GeneID 5158)	-0.604	3.04	-0.592	-0.54	-0.707
25	PCDHGA7 (GeneID 56108)	-0.0348	2.76	-0.134	-0.217	0.0895
26	ACY1 (GeneID 95)	-0.624	3.29	-0.475	-0.391	-0.748
27	HLA-DQA1 (GeneID 3117)	-0.65	2.26	-0.675	-0.608	-0.671
28	TACC1 (GeneID 6867)	-0.547	2.05	-0.814	-0.514	-0.0899
29	CTSG (GeneID 1511)	0.0471	2.28	-0.353	0.254	0.51
30	HSPA4L (GeneID 22824)	0.469	2.42	0.567	0.474	0.335
31	UBE2L6 (GeneID 9246)	-0.137	2.21	-0.351	0.125	-0.261
32	SGCG (GeneID 6445)	-0.547	3.27	-0.583	-0.599	-0.5
33	ANOS1 (GeneID 3730)	0.0398	2.13	0.0414	0.0115	-0.00896
34	CBR4 (GeneID 84869)	0.354	2.03	0.335	-0.109	0.198
35	HYPK (GeneID 25764)	-0.299	2.49	-0.0616	-0.449	-0.243
36	NTRK3 (GeneID 4916)	0.555	0.996	0.601	0.624	0.18
37	LAPTM5 (GeneID 7805)	0.377	2.17	0.425	0.478	0.235
38	GPR156 (GeneID 165829)	0.124	2.52	0.129	0.197	-0.0781
39	NUP160 (GeneID 23279)	-0.526	2.6	-0.436	-0.533	-0.392
40	SDS (GeneID 10993)	-0.427	3.88	-0.232	-0.501	-0.441
41	ZNRF1 (GeneID 84937)	0.616	2	0.692	0.519	0.241
42	RIOX1 (GeneID 79697)	0.234	1.78	0.198	0.513	0.00999
43	FBXO34 (GeneID 55030)	-0.607	6.67	-0.209	-0.506	-0.342
44	ABTB2 (GeneID 25841)	0.738	1.29	0.877	0.866	0.388
45	BRSK1 (GeneID 84446)	-0.0164	2.56	0.478	0.116	-0.48
46	RLBP1 (GeneID 6017)	-0.838	1.68	-0.775	-0.614	-0.111
47	GOT1 (GeneID 2805)	0.699	1.54	0.519	0.75	0.769
48	ALG9 (GeneID 79796)	0.266	1.38	0.458	0.399	0.0813
49	UQCRFS1 (GeneID 7386)	-0.861	2.27	-0.789	-0.813	-0.737
50	PAQR5 (GeneID 54852)	-0.441	2.64	-0.431	-0.776	-0.558
